{
  "source": "paper doi:10.1101/2023.06.07.543977",
  "key": {"mKu (mycobacterial Ku) [1]": {"target": "T1, mKu (mycobacterial Ku) (UniProt P9WKD9)", "T1 sequence (looked up, limits assumed)": "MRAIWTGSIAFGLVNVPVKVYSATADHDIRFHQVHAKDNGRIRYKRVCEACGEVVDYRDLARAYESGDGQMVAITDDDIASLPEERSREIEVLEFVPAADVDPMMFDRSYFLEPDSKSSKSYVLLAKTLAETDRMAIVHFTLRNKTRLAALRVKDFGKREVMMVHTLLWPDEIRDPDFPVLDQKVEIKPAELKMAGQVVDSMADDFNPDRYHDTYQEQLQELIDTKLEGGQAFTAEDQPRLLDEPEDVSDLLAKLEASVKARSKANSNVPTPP", "test": "EMSA", "details": "5 nM DNA, 0-2.5 nM mKu, Hill n 1.5±0.3"}, "mKu (mycobacterial Ku) [2]": {"target": "T1, mKu (mycobacterial Ku)", "test": "SPR", "details": "recombinant protein"}, "mKu (mycobacterial Ku) [3]": {"target": "T1, mKu (mycobacterial Ku)", "test": "analytical ultracentrifugation", "details": "recombinant protein"}, "mKu (mycobacterial Ku) [4]": {"target": "T1, mKu (mycobacterial Ku)", "test": "differential scanning fluorimetry", "details": "recombinant protein"}, "mKu (mycobacterial Ku) [5]": {"target": "T1, mKu (mycobacterial Ku)", "test": "negative-stain TEM", "details": "recombinant protein"}, "mKu (mycobacterial Ku) [6]": {"target": "T1, mKu (mycobacterial Ku)", "test": "size exclusion chromatography", "details": "recombinant protein"}, "mKu (mycobacterial Ku) [7]": {"target": "T1, mKu (mycobacterial Ku)", "test": "exonuclease III protection", "details": "recombinant protein"}},
  "note": "For at least one entry, the source does not settle the construct or the ends of the probe. Protein sequences can lack the tags named with them.",
  "data": [
    {"sequence": "CCCCCCTGTCGCCGCCGACGTCTGTGATATGGCGTTGTTG (double strand) [40 bp dsDNA (FAM)]", "values": [
      {"measurement": "Kd", "setting": "mKu (mycobacterial Ku) [1]", "value": 0.33, "unit": "nM"}
    ]},
    {"sequence": "CCCCCCTGTCGCCGCCGACGTCTGTGATATGGCGTTGTTG (double strand) [40 bp dsDNA (biotin)]", "values": [
      {"measurement": "half-maximal binding", "setting": "mKu (mycobacterial Ku) [2]", "value": 74.3, "unit": "nM"}
    ]},
    {"sequence": "CCCCCCTGTCGCCGCCGACGTCTGTGATATGGCGTTGTTG (double strand) [40 bp dsDNA (unlabelled)]", "values": [
      {"measurement": "binding result", "setting": "mKu (mycobacterial Ku) [3]", "value": "binds"},
      {"measurement": "binding result", "setting": "mKu (mycobacterial Ku) [4]", "value": "binds"},
      {"measurement": "binding result", "setting": "mKu (mycobacterial Ku) [5]", "value": "binds"},
      {"measurement": "binding result", "setting": "mKu (mycobacterial Ku) [6]", "value": "binds"},
      {"measurement": "binding result", "setting": "mKu (mycobacterial Ku) [7]", "value": "binds"}
    ]}
  ]
}
